Reference: article PMC8469703
No constants are given. Whether binding was seen depends on the method and setting. For some of these results: Binding seen in cells or lysates may run through a third protein. Some results given as binding are weak or reduced against the parent protein; the word gives no strength. Each block holds one substance with its values, some of them ahead of it.

Chains of the proteins cited; added tags and fusions are not shown. Lines headed by an entry give the natural chain unless they say otherwise; changes in a name come on top. A line that says so, or that is headed by a name, gives the form on record, which may keep a tag or linker. Residues count along the entry.
UniProt O00571: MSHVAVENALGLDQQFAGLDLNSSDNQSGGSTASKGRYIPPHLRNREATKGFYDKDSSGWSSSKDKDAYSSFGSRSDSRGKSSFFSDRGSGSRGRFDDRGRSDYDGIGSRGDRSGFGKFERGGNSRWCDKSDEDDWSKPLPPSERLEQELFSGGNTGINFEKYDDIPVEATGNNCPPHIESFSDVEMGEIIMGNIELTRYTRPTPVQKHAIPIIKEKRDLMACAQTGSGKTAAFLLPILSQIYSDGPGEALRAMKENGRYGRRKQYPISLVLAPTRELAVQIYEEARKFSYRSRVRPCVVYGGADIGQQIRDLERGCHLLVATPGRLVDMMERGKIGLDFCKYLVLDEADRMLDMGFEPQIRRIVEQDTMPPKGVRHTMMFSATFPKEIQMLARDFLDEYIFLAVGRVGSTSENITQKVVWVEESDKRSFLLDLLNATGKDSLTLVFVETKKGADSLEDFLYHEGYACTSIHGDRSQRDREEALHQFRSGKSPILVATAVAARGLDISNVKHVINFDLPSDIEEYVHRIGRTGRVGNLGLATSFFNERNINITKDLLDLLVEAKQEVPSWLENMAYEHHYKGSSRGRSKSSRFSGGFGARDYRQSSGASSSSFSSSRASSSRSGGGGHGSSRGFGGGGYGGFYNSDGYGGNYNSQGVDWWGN
GST-tagged C-terminal region of DDX3 (GST-DDX3^535–662): residues 535-662 of O00571

Tests used:
[1] = target: Flag-tagged wild-type hnRNPK in U2OS-WT cells (UniProt P61978); experiment: co-IP; Flag-hnRNPK precipitated with anti-Flag antibody and protein G Sepharose from U2OS-WT, U2OS-2RK or U2OS-2RK/1SA lysates (PBS, 0.5% Triton X-100, 4 °C, 3 h); endogenous DDX3 detected by blot; cells untreated or treated with etoposide (50 μM), RK-33 (5 or 10 μM), AMPPNP (5 μM), AMP (5 μM) or AVN A
[2] = target: Flag-tagged methylation-defective hnRNPK (hnRNPK^MD, R296K/R299K) in U2OS-2RK cells (UniProt P61978); experiment: as above
[3] = target: GST-tagged full-length DDX3 (GST-DDX3^1–662) (human) (UniProt O00571); experiment: pull-down; bead-bound GST-DDX3 variants incubated with recombinant hnRNPK or the KI segment; binding buffer PBS with 0.5% NP-40, 0.25% sodium deoxycholate, 5% glycerol, protease inhibitors; 4 °C, 1 h; three washes; SDS-PAGE; both purified
[4] = target: GST-tagged C-terminal region of DDX3 (GST-DDX3^535–662) (human) (UniProt O00571); experiment: as above
[5] = target: Flag-tagged methylation-defective hnRNPK (hnRNPK^MD, R296K/R299K) in U2OS-2RK cells (UniProt P61978); experiment: co-IP; U2OS-2RK cells transfected with Myc-DDX3 variants (36 or 48 h); immunoprecipitation of hnRNPK-2RK, precipitated Myc-DDX3 detected by blot
[6] = target: GST-tagged C-terminal region of DDX3 (GST-DDX3^535–662) (human) (UniProt O00571); experiment: pull-down; bead-bound GST-DDX3 variants incubated with U2OS-WT or U2OS-2RK cell extracts; binding buffer PBS with 0.5% NP-40, 0.25% sodium deoxycholate, 5% glycerol, protease inhibitors; 4 °C, 1 h; only the target purified

binding [1]: binds
binding [2]: binds
Substance: DDX3, endogenous in U2OS cells (from UniProt O00571 1-662)

binding [3]: binds
binding [4]: binds
Substance: recombinant His6-tagged hnRNPK (from pET23a-Trx-hnRNPK) (from UniProt P61978 1-463)

binding [5]: binds
Substance: Myc-tagged full-length DDX3 (Myc-DDX3^1–662) (from UniProt O00571 1-662)

binding [6]: binds
Substance: Flag-tagged methylation-defective hnRNPK (hnRNPK^MD, R296K/R299K) in U2OS-2RK cells (from UniProt P61978 1-463)

binding [6]: binds
Substance: Flag-tagged wild-type hnRNPK in U2OS-WT cells (from UniProt P61978 1-463)
